{"sequences": {"note": "Amino acid sequences for entries named in this document (tags omitted).", "UniProt Q9Y496": "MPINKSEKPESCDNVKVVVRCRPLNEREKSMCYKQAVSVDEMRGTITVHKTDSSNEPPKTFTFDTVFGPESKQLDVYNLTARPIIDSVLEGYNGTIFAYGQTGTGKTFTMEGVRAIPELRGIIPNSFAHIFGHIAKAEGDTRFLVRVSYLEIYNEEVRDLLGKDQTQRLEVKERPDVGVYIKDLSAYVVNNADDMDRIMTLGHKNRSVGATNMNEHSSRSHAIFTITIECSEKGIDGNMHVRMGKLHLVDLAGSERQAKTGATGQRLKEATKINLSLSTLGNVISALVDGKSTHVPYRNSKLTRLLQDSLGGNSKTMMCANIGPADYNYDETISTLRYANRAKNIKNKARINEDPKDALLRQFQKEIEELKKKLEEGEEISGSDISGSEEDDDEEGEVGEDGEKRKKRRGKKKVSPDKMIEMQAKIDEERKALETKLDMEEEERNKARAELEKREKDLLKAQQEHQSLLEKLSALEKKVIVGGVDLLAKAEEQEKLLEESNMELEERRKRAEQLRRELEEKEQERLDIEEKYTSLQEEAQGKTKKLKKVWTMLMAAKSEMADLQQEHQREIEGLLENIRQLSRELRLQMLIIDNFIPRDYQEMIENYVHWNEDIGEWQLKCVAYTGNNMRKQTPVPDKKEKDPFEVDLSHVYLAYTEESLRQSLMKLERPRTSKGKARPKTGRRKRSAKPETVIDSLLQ"}, "source": "paper PMC6678984", "key": {"[1]": {"biological_target": "T1, GST-CAPK full-length (ciliopathy-associated protein kinase, intestinal cell kinase ICK), wild type (human) (UniProt Q9UPZ9)", "T1 sequence": "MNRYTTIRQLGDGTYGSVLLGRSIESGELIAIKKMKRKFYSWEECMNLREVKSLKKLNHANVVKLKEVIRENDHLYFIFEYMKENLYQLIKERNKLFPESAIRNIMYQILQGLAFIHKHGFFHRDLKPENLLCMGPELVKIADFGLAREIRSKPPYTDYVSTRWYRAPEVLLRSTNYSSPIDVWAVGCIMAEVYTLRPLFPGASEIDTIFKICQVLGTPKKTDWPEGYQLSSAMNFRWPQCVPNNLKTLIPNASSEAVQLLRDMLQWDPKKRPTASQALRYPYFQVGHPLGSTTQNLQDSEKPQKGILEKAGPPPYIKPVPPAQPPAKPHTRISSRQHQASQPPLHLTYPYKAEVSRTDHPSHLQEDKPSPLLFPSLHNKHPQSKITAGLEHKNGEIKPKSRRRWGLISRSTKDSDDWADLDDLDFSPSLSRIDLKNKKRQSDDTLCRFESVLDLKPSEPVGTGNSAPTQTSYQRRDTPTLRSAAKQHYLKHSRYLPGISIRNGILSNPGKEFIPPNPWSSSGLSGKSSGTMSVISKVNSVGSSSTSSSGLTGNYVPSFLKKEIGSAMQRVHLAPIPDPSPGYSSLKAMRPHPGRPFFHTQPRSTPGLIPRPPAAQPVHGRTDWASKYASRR", "experiment": "pull-down; GST, GST-CAPK FL or GST-CAPK (1–291) co-expressed with HA-KIF3A in HEK293T cells; GST fusion proteins pulled down from cell lysate (50 mM Tris-HCl pH 7.4, 150 mM NaCl, 1% NP-40) with glutathione Sepharose 4B beads; HA-KIF3A on beads detected by anti-HA and anti-KIF3A Western blot"}, "[2]": {"biological_target": "T1, GST-CAPK full-length (ciliopathy-associated protein kinase, intestinal cell kinase ICK), wild type (human)", "experiment": "pull-down; in vitro binding assay: GST, GST-CAPK FL or GST-CAPK (1–291) from HEK293T affinity-purified on glutathione Sepharose beads, incubated with cell lysate containing HA-KIF3A at 4 °C overnight, rinsed, eluted; Western blot against HA or KIF3A; only the target purified"}}, "note": "These are yes or no findings as the source states them, for the method shown. In cells and extracts the contact can be indirect. Some entries that bind do so weakly or less than the wild type. Sequences can lack the tags named with a protein."}
{"substance": "HA-KIF3A (kinesin family member 3A) (from UniProt Q9Y496 1-699)", "values": [{"measurement": "binding", "setting": "[1]", "result": "binds"}, {"measurement": "binding", "setting": "[2]", "result": "binds"}]}
